{"source": "the supplement of paper PMC8728848", "experiment_in_all_cases": "glycan array binding signal (z-score within array); higher = stronger binding", "details_in_all_cases": "glycan notation: IUPAC condensed, linker removed; mutation: D21K", "key": {"[1]": {"target": "Gal(b1-4)GlcNAc(b1-3)GalNAc", "outline": "(§1)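 The binding signal is a Z-score computed within each array and averaged over linkers. Arrays of the same protein sequence at different concentrations or buffers were also averaged together. Data originate from 3228 arrays in the Consortium for Functional Glycomics database, kept only where the protein sequence was available.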"}, "[2]": {"target": "Gal(b1-4)GlcNAc(b1-3)[Fuc(a1-3)GlcNAc(b1-6)]Gal(b1-4)Glc", "outline": "as §1"}, "[3]": {"target": "Gal(b1-4)GlcNAc(b1-3)[Gal(b1-4)GlcNAc(b1-6)]Gal(b1-4)GlcNAc", "outline": "as §1"}, "[4]": {"target": "Gal(b1-4)GlcNAc(b1-3)[GlcNAc(b1-6)]Gal(b1-4)GlcNAc", "outline": "as §1"}, "[5]": {"target": "Gal(b1-4)GlcNAc(b1-6)Gal(b1-4)GlcNAc", "outline": "as §1"}, "[6]": {"target": "Gal(b1-4)GlcNAc(b1-6)GalNAc", "outline": "as §1"}, "[7]": {"target": "Gal(b1-4)GlcNAc(b1-6)[Gal(b1-3)]GalNAc", "outline": "as §1"}, "[8]": {"target": "Gal(b1-4)GlcNAc(b1-6)[Gal(b1-4)GlcNAc(b1-3)]GalNAc", "outline": "as §1"}, "Gal(b1-4)GlcNAc6P": {"target": "Gal(b1-4)GlcNAc6P", "outline": "as §1"}, "Gal(b1-6)Gal": {"target": "Gal(b1-6)Gal", "outline": "as §1"}, "Gal3S(b1-3)GalNAc": {"target": "Gal3S(b1-3)GalNAc", "outline": "as §1"}, "Gal3S(b1-3)GlcNAc": {"target": "Gal3S(b1-3)GlcNAc", "outline": "as §1"}, "[9]": {"target": "Gal3S(b1-3)[Fuc(a1-4)]GlcNAc", "outline": "as §1"}, "Gal3S(b1-4)Glc": {"target": "Gal3S(b1-4)Glc", "outline": "as §1"}, "Gal3S(b1-4)Glc6S": {"target": "Gal3S(b1-4)Glc6S", "outline": "as §1"}, "Gal3S(b1-4)GlcNAc": {"target": "Gal3S(b1-4)GlcNAc", "outline": "as §1"}, "[10]": {"target": "Gal3S(b1-4)[Fuc(a1-3)]Glc6S", "outline": "as §1"}, "[11]": {"target": "Gal3S(b1-4)[Fuc(a1-3)]GlcNAc", "outline": "as §1"}, "[12]": {"target": "Gal3S(b1-4)[Fuc(a1-3)]GlcNAc6S", "outline": "as §1"}, "Gal3S4S(b1-4)GlcNAc": {"target": "Gal3S4S(b1-4)GlcNAc", "outline": "as §1"}, "Gal3S6S(b1-4)GlcNAc": {"target": "Gal3S6S(b1-4)GlcNAc", "outline": "as §1"}, "Gal3S6S(b1-4)GlcNAc6S": {"target": "Gal3S6S(b1-4)GlcNAc6S", "outline": "as §1"}, "Gal4S(b1-4)GlcNAc": {"target": "Gal4S(b1-4)GlcNAc", "outline": "as §1"}, "Gal4S6S(b1-4)GlcNAc": {"target": "Gal4S6S(b1-4)GlcNAc", "outline": "as §1"}, "Gal6P(b1-4)GlcNAc": {"target": "Gal6P(b1-4)GlcNAc", "outline": "as §1"}, "Gal6S(b1-3)GlcNAc": {"target": "Gal6S(b1-3)GlcNAc", "outline": "as §1"}, "Gal6S(b1-3)GlcNAc6S": {"target": "Gal6S(b1-3)GlcNAc6S", "outline": "as §1"}}, "note": "The other results are listed elsewhere or left out."}
{"binder": "KILRGVCKKIMRTFLRRISKKILTGKK", "note": "[C7A (Sus scrofa)]", "values": [{"measurement": "glycan array binding signal (z-score)", "setting": "[1]", "result": -0.848}, {"measurement": "glycan array binding signal (z-score)", "setting": "[2]", "result": 0.528}, {"measurement": "glycan array binding signal (z-score)", "setting": "[3]", "result": -0.574}, {"measurement": "glycan array binding signal (z-score)", "setting": "[4]", "result": -0.227}, {"measurement": "glycan array binding signal (z-score)", "setting": "[5]", "result": 0.295}, {"measurement": "glycan array binding signal (z-score)", "setting": "[6]", "result": 0.647}, {"measurement": "glycan array binding signal (z-score)", "setting": "[7]", "result": 0.074}, {"measurement": "glycan array binding signal (z-score)", "setting": "[8]", "result": -0.398}, {"measurement": "glycan array binding signal (z-score)", "setting": "Gal(b1-4)GlcNAc6P", "result": -0.088}, {"measurement": "glycan array binding signal (z-score)", "setting": "Gal(b1-6)Gal", "result": 0.054}, {"measurement": "glycan array binding signal (z-score)", "setting": "Gal3S(b1-3)GalNAc", "result": -0.766}, {"measurement": "glycan array binding signal (z-score)", "setting": "Gal3S(b1-3)GlcNAc", "result": 0.405}, {"measurement": "glycan array binding signal (z-score)", "setting": "[9]", "result": -0.272}, {"measurement": "glycan array binding signal (z-score)", "setting": "Gal3S(b1-4)Glc", "result": 0.34}, {"measurement": "glycan array binding signal (z-score)", "setting": "Gal3S(b1-4)Glc6S", "result": 0.213}, {"measurement": "glycan array binding signal (z-score)", "setting": "Gal3S(b1-4)GlcNAc", "result": 0.551}, {"measurement": "glycan array binding signal (z-score)", "setting": "[10]", "result": 0.75}, {"measurement": "glycan array binding signal (z-score)", "setting": "[11]", "result": 2.08}, {"measurement": "glycan array binding signal (z-score)", "setting": "[12]", "result": 2.15}, {"measurement": "glycan array binding signal (z-score)", "setting": "Gal3S4S(b1-4)GlcNAc", "result": 1.1}, {"measurement": "glycan array binding signal (z-score)", "setting": "Gal3S6S(b1-4)GlcNAc", "result": 2.5}, {"measurement": "glycan array binding signal (z-score)", "setting": "Gal3S6S(b1-4)GlcNAc6S", "result": 2.04}, {"measurement": "glycan array binding signal (z-score)", "setting": "Gal4S(b1-4)GlcNAc", "result": 0.164}, {"measurement": "glycan array binding signal (z-score)", "setting": "Gal4S6S(b1-4)GlcNAc", "result": -0.533}, {"measurement": "glycan array binding signal (z-score)", "setting": "Gal6P(b1-4)GlcNAc", "result": -1.61}, {"measurement": "glycan array binding signal (z-score)", "setting": "Gal6S(b1-3)GlcNAc", "result": 1.07}, {"measurement": "glycan array binding signal (z-score)", "setting": "Gal6S(b1-3)GlcNAc6S", "result": 2.66}]}
